Test [1] has as its target Gloeobacter rhodopsin (Gloeobacter violaceus PCC 7421) (UniProt Q7NP59). Nature of the test: negative-stain electron microscopy; sample from the SEC peak at pH 3.0, around 0.05 mg/mL, carbon coated grids, 2% uranyl acetate; both purified.
For test [2] the target is unchanged. Nature of the test: SEC; Superdex 200 10/300 GL; 20 mM sodium citrate pH 3.0, 300 mM NaCl, 0.04% DDM; both purified. (Size exclusion chromatography separates by hydrodynamic size, large species first.)

These are yes or no findings as the source states them, for the method shown.

B1: Gloeobacter rhodopsin (natural protein, Gloeobacter violaceus PCC 7421)
chain: MLMTVFSSAPELALLGSTFAQVDPSNLSVSDSLTYGQFNLVYNAFSFAIAAMFASALFFFSAQALVGQRYRLALLVSAIVVSIAGYHYFRIFNSWDAAYVLENGVYSLTSEKFNDAYRYVDWLLTVPLLLVETVAVLTLPAKEARPLLIKLTVASVLMIATGYPGEISDDITTRIIWGTVSTIPFAYILYVLWVELSRSLVRQPAAVQTLVRNMRWLLLLSWGVYPIAYLLPMLGVSGTSAAVGVQVGYTIADVLAKPVFGLLVFAIALVKTKADQESSEPHAAIGAAANKSGGSLIS
modifications: all-trans-retinal covalently bound to Lys257 via a protonated Schiff base
notes: Gloeobacter rhodopsin (GR), light-driven proton pump of Gloeobacter violaceus PCC 7421; 33 kDa; Membrane protein in detergent micelles (0.04% DDM) in the oligomerisation experiments; also called GR; wild-type GR; source: E. coli C43(DE3), purified (TALON Co2+ column, Superdex 200) in OG or DDM
On to B1, for which the binding result in test [1] and in test [2] was “no binding (condition: at pH 3.0)” each time.
